Assay results: article doi:10.1101/2025.04.09.647920

By UniProt entry, the sequences of proteins in these tests, tags left out.
UniProt Q42479: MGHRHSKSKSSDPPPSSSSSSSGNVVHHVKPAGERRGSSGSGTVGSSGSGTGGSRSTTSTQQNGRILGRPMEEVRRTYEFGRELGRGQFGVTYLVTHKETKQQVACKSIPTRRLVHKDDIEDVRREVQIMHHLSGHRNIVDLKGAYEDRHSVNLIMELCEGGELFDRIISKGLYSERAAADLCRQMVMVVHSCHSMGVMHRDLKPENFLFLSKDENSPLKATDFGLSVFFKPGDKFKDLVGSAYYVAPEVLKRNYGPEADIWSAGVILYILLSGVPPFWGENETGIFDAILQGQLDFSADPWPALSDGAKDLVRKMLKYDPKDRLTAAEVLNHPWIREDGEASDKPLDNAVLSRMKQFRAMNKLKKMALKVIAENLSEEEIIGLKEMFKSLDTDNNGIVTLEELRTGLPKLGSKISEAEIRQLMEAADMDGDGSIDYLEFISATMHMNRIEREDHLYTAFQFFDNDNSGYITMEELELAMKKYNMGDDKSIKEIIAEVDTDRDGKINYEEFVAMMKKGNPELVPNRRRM

Target: T1, SUPPRESSOR OF NPR1-1, CONSTITUTIVE 1 (SNC1)-Myc (Arabidopsis thaliana) (UniProt O23530)
T1 sequence: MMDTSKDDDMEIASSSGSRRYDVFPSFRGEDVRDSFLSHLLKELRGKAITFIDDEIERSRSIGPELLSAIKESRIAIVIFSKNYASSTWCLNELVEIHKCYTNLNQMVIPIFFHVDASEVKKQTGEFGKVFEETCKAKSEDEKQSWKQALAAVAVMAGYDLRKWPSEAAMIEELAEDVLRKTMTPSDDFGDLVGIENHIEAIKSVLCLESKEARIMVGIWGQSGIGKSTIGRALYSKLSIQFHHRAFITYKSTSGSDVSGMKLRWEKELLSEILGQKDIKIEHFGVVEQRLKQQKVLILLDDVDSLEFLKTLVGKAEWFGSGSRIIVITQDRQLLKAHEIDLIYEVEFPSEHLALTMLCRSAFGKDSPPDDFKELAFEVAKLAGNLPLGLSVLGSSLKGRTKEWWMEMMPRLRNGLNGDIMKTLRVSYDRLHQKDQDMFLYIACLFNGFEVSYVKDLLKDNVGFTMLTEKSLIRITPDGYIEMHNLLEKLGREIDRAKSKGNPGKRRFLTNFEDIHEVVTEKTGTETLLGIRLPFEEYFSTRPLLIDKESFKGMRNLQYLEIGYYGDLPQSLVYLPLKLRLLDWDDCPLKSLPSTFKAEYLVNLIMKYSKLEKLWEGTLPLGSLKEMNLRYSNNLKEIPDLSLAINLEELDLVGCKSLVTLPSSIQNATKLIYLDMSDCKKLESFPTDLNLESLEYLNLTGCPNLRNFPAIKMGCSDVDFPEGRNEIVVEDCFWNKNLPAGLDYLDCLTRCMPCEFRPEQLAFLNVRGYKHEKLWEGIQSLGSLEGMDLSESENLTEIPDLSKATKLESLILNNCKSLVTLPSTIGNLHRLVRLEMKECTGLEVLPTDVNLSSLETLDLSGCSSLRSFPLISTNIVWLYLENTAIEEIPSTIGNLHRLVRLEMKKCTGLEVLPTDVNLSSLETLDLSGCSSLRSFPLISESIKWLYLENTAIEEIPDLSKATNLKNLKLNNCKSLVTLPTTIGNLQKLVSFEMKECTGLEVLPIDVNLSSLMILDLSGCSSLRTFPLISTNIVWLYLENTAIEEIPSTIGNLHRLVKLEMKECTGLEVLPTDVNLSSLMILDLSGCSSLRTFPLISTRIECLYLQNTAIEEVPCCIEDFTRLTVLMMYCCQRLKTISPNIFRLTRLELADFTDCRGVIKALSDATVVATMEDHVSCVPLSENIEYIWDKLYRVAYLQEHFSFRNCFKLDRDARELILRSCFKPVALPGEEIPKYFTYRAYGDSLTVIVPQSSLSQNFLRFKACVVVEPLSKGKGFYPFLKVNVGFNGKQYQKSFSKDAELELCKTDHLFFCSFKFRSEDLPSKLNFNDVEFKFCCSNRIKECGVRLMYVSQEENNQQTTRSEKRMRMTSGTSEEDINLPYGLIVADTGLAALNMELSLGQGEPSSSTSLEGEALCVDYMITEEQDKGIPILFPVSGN
Experiment: affinity purification with mass spectrometry

binding: binds
Substance: Ca2+-dependent protein kinase 3 (CPK3), endogenous (from UniProt Q42479 1-529) (enzyme)

These are yes or no findings as the source states them, for the method shown. Binding seen in cells or lysates may run through a third protein. These calls come from enrichment with a bait or labelling near it, and not all partners need be listed. Sequences can lack the tags named with a protein.
